Consider 38 sequences from the supplement of paper PMC10338343.

± gives the standard deviation. The list shows a part of the results, in another mix than the full data. The uncertainty is large for many entries.

The test relates to MILI (PIWIL2) piRISC loaded with L1MC piRNA (26 nt). As to the kind of experiment: pre-steady-state target cleavage rate (min^-1); MIWI and MILI are mouse PIWI proteins and EfPiwi is from a freshwater sponge; tags in brackets are library labels; higher = faster piRNA-guided slicing of the target. Conditions: guide: L1MC piRNA 5'p-UAACUAAAUACUAUGCAAGCUGUAGG; auxiliary factor: none (no GTSF1). Put shortly:
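The pre-steady-state cleavage rate was obtained by Cleave-'n-Seq with a burst-and-steady-state fit. A transcribed, DNA-blocked target RNA library (0.1 nM) was mixed with 1 nM active affinity-purified piRISC carrying one synthetic guide, with or without 500 nM GTSF1 partner protein, in HEPES–potassium acetate buffer at 33 °C for 0–8 or 0–960 min. Uncleaved targets were sequenced and normalised to depth and to weakly complementary targets, with three trials pooled and k3 capped at 0.0001 min^-1.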
UCCUGGAUGUCCUUGCAUAGUAUUAUGUAA: the “pre-steady-state target cleavage rate” value came out at 0.000525 ± 0.012.

As to UCCUGCUACAGCUUCGAUAGUAUUUACAAA, the “pre-steady-state target cleavage rate” value turned out to be 0.00069 ± 0.0073.

As for UCCUGGAUCUCCUUGCAUAGUAUUUUCAAA, the “pre-steady-state target cleavage rate” value was found to be 0.000896 ± 0.008.

UCCUGGAUGUGCUUGCAUAGUAUUAUCUUA: the “pre-steady-state target cleavage rate” value was 0.000674 ± 0.0081.

For the sequence UCCUCCUACAGCUUGCAUAGUAAUUUCAAA, the “pre-steady-state target cleavage rate” value came to 0.00166 ± 0.0046.

On to UCCUGGUACAGCUUGCAUACAUUUUAGAAA, for which the “pre-steady-state target cleavage rate” value is 0.00167 ± 0.0064.

Regarding UCCUGGAUCAGCUUCCAUAGAAUUUAGUUA, the “pre-steady-state target cleavage rate” value is 0.000375 ± 0.012.

As for UCCUCCUACAGCUUGCUAUAGUAUUUAGUUA, the “pre-steady-state target cleavage rate” value is 0.00137 ± 0.0037.

On to UCCUGGUACAGCUUGCAUUCAAUUUUCAAA, for which the “pre-steady-state target cleavage rate” value is 0.00095 ± 0.0095.

On to UCCUCCUACAGCUUGCAUUCAAUUUAGAAA, for which the “pre-steady-state target cleavage rate” value was 0.00015 ± 0.021.

Turning to UCCUGGUAGUGCUUGCAUAGUAUUUUCAAA, the “pre-steady-state target cleavage rate” value came out at 0.000933 ± 0.0054.

UCCUGCUACUCGUUGCAUAGUAUUUACAAA: the “pre-steady-state target cleavage rate” value was 0.00137 ± 0.0033.

UCCUGCUACAGCUUGCAUAGUAUUUUCUAA: the “pre-steady-state target cleavage rate” value came to 0.00153 ± 0.0042.

Turning to UCCUGGAACAGCUUCGUUAGUAUUUACAAA, the “pre-steady-state target cleavage rate” value turned out to be 0.000147 ± 0.018.

With UCCUCCUACUCGUUGCAUAGUAUUUAGAAA, the “pre-steady-state target cleavage rate” value came to 0.00113 ± 0.0049.

For the sequence UCCUGGAUGUCGUUGCAUACUAUUUAGUAA, the “pre-steady-state target cleavage rate” value worked out at 0.000832 ± 0.007.

For UCCUGGAUGUGCUUCCAUAGUAUUUAGUAA, the “pre-steady-state target cleavage rate” value stood at 0.00166 ± 0.0042.

With UCCUGGAUCAGCAACCAUAGUAUUUAGUAA, the “pre-steady-state target cleavage rate” value turned out to be 0.000878 ± 0.0068.

Regarding UCCUGGAUCAGCAAGCAUAGUAUUUACAAA, the “pre-steady-state target cleavage rate” value turned out to be 0.000795 ± 0.0078.

For the sequence UCCUCCUACAGCUUGCAUAGUAAUAAGUUA, the “pre-steady-state target cleavage rate” value amounted to 0.00183 ± 0.0039.

On to UCCUGGAUGUCCUAGCAUUGUAUUUAGUUA, for which the “pre-steady-state target cleavage rate” value came to 0.0016 ± 0.0034.

Consider UCCUGGUACAGCAACCAUAGUAUUUAGAAA, for which the “pre-steady-state target cleavage rate” value came out at 0.00109 ± 0.0064.

In the case of UCCUGGAUGAGCUUCCAUAGUAUUUAGUAA, the “pre-steady-state target cleavage rate” value stood at 0.000897 ± 0.0071.

With UCCUGGAUGUCGAACGUAUGUAUUUUAGUUA, the “pre-steady-state target cleavage rate” value came to 0.000222 ± 0.021.

For the sequence UCCUCCUACAGCUUGCAUACAUUUUACAAA, the “pre-steady-state target cleavage rate” value is 0.000562 ± 0.01.

On to UCCUGGAUCAGCUUGGUAAGUAUUUAGAAA, for which the “pre-steady-state target cleavage rate” value was 0.000409 ± 0.013.

With UCCUGGAUGUCGAUGCAUAGUAUUUACUAA, the “pre-steady-state target cleavage rate” value is 0.000463 ± 0.013.

In the case of UCCUGGAUGUCCUUGCAUAGUUAAUAGUUA, the “pre-steady-state target cleavage rate” value came out at 0.0025 ± 0.0026.

As for UCCUGGAACUCGUUGCAUAGUAUUUUCAAA, the “pre-steady-state target cleavage rate” value was 0.00115 ± 0.0052.

For UCCUGGAUGUCCUUGCAUAGUAUUUAGAAA, the “pre-steady-state target cleavage rate” value came out at 0.00108 ± 0.0058.

Take UCCUGGAUCAGGAUGCAUAGUAUUUUCAAA: the “pre-steady-state target cleavage rate” value came out at 0.000312 ± 0.013.

For UCCUGGAUGUCGAUGCAUAGUAUAUAGUAA, the “pre-steady-state target cleavage rate” value turned out to be 0.00165 ± 0.0041.

Regarding UCCUGGAACAGCUUGCAUAGAUAUUACAAA, the “pre-steady-state target cleavage rate” value was determined as 0.000933 ± 0.0057.

As for UCCUGGAUGUCCUUGCAUUGUAUUUACUUA, the “pre-steady-state target cleavage rate” value was 0.00168 ± 0.004.

As for UCCUCCUACAGCUUGCAUAGUAUAUUCAAA, the “pre-steady-state target cleavage rate” value is 0.00148 ± 0.0033.

As to UCCUGCUACAGCUUGCAUAGUAAAUUCAAA, the “pre-steady-state target cleavage rate” value turned out to be 0.000968 ± 0.0061.

Take “UCCUGGUACAGCUUGCAUUCAUAAAUCAAA [g13:g24:cont:t1A]”: the “pre-steady-state target cleavage rate” value was found to be 0.00123 ± 0.005.

Regarding UCCUGGAUGACGUUGCAUAGUAUUUAGUAA, the “pre-steady-state target cleavage rate” value was determined as 0.00223 ± 0.0048.
